# The list shows a part of the results. The main result of the screen is listed elsewhere. These columns were measured beside it and carry no call. Compounds called inactive in the main read-out are mostly missing here. Potencies come from curve fits of mixed quality, noted in brackets.
# Assay: Cell signaling CRE-BLA (Fsk stim)
# Conditions: CHO CRE-bla reporter (cAMP response element driving beta-lactamase), forskolin EC10, beta-lactamase ratio; measured here: 460 nm blue channel
# In short: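 qHTS titration format; CRE-bla CHO reporter; stimulus EC10 NKH 477, a water-soluble forskolin. Read: CCF4 460/530 nm ratio. Potency expressed as AC50 for activators or inhibitors.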
row,Structure (SMILES),AC50
1,CC1(C)OC(=O)N(c2cccnc2)C1(C)O (centres undefined),"0.2 µM [falling, full curve]"
2,COC(=O)c1c(NC(=O)CSc2nncs2)sc2c1CCCCC2,"12.6 µM [rising, partial curve]"
3,CN1/C(=C\C(=O)COC(=O)Cn2nnc(-c3ccccc3)n2)C(C)(C)c2ccccc21,"3.98 µM [falling, partial curve]"
4,CNc1oc(Cc2ccccc2)nc1S(=O)(=O)c1ccccc1,"12.6 µM [falling, single point]"
5,COc1ccc(S(=O)(=O)c2c(N)n(Cc3ccco3)c3nc4ccccc4nc23)cc1,"12.6 µM [rising, single point]"
6,COc1ccc(S(=O)(=O)NCC(c2cccnc2)N2CCN(c3ccc(F)cc3)CC2)cc1C (centres undefined),"15.8 µM [rising, partial curve, poor fit]"
7,Nc1c(C(=O)NC2CCCC2)sc2nc(-c3cccs3)ccc12,"12.6 µM [rising, single point]"
8,CNc1ncnc2ccc(-c3ccccc3C)cc12,"10 µM [rising, partial curve]"
9,CCn1c(=O)c(C(=O)NCc2ccccn2)c(O)c2ccccc21,"6.31 µM [rising, partial curve]"
10,Cc1ccc(SCc2[nH]nc3c2C2(CCSCC2)C(C#N)=C(N)O3)cc1,"10 µM [falling, single point]"
11,CCn1c(SCC(=O)Nc2cc3oc4ccccc4c3cc2OC)nnc1-c1cccs1,"1.58 µM [rising, partial curve]"
12,CCOc1cc(-c2c(C)c(CC)nc(N)c2C#N)ccc1O,"12.6 µM [rising, partial curve]"
13,COc1cc2nc(NCC3CCCO3)n3nc(-c4cccnc4)nc3c2cc1OC (centres undefined),"0.794 µM [rising, partial curve]"
14,COC(=O)c1ccccc1NC(=O)c1ccc(NS(C)(=O)=O)cc1,"15.8 µM [rising, single point]"
15,O=C(NCc1cccnc1)C1CCN(S(=O)(=O)c2cccnc2)CC1,"0.0251 µM [falling, full curve]"
16,CCNS(=O)(=O)c1ccc(NC(=O)c2ccccc2OCC)cc1,"15.8 µM [rising, partial curve]"
17,Nc1ncc(-c2cc3ccccc3oc2=O)s1,"1.26 µM [rising, partial curve]"
18,COc1ccccc1CCn1c(=O)c(C)nc2cncnc21,"31.6 µM [rising, single point]"
19,O=C(Nc1ccc2c(c1)OCCO2)c1ccncc1,"0.631 µM [falling, full curve, poor fit]"
20,C=CCn1c(NC(=O)c2ccco2)c(S(=O)(=O)c2ccccc2)c2nc3ccccc3nc21,"12.6 µM [rising, partial curve]"
21,COCCn1c(SCC(=O)Nc2cc(Cl)ccc2OC)nc2c(c1=O)SC(C)C2 (centres undefined),"12.6 µM [rising, partial curve]"
22,C=CCn1c(SCC(=O)N2CCN(C(=O)c3ccco3)CC2)nc2sc(CC)cc2c1=O,"12.6 µM [rising, partial curve]"
23,CCn1c(SCc2nc3ccccc3c(=O)[nH]2)nc2ccccc2c1=O,"3.98 µM [rising, partial curve]"

row,Structure (SMILES),AC50
1,CS(=O)(=O)N1CCc2cc(C(=O)OCC(=O)c3ccccc3)ccc21,"12.6 µM [falling, single point]"
2,COc1ccc(-c2noc(COc3ccccc3OC)n2)cc1OC,"7.94 µM [rising, partial curve]"
3,COC(=O)C1=C2SC(C)C(=O)N2C(N)=C(C#N)C1c1cc(OC)c(OC)c(OC)c1 (centres undefined),"2.51 µM [falling, full curve, poor fit]"
4,CCCn1c(C)cc(=O)c2cc(NC(=O)c3cnccn3)ccc21,"25.1 µM [rising, single point]"
5,OC(COCC1COc2ccccc2O1)CN1CCN(c2ccccn2)CC1 (centres undefined),"0.126 µM [falling, single point]"
6,COc1ccc(-n2c(N)c(C(=O)NCc3ccco3)c3nc4ccccc4nc32)c(OC)c1,"12.6 µM [rising, partial curve]"
7,Cc1sc(NC(=O)CSc2nnc(COc3ccc(Cl)cc3)n2C)c(C#N)c1C,"25.1 µM [falling, single point]"
8,COc1cc(-c2nnc(-c3cccnc3)o2)cc(OC)c1OC,"10 µM [rising, partial curve]"
9,Cc1cccc(-c2cc3nc4c(c(N5CCCC(O)C5)n3n2)CCC4)c1 (centres undefined),"10 µM [rising, partial curve]"
10,COc1cccc(C(=O)N(Cc2nc(-c3cccc(C)c3)no2)C(C)C)c1OC,"5.01 µM [falling, partial curve]"
11,Cc1noc(C)c1COC(=O)c1ccccc1Oc1ccccc1,"10 µM [rising, partial curve]"
12,CC(O)CNc1nc2c(c(=O)n(C)c(=O)n2C)n1C/C=C/c1ccccc1 (centres undefined),"12.6 µM [rising, partial curve]"
13,CCN(CC)CCCNc1nc2ccccc2[nH]1,"12.6 µM [rising, single point]"
14,C=C(C)[C@H]1CC=C(C)C(=O)C1,"0.794 µM [falling, full curve, poor fit]"
15,Cc1ccc2cc(C)c(N3CCN(c4ccccn4)CC3)nc2c1,"0.501 µM [rising, full curve]"
16,Cc1nn(-c2ccccc2)c2[nH]c(C(F)(F)F)cc(=O)c12,"25.1 µM [rising, single point]"
17,O=C(CN1CCOCC1)NCc1ccccc1,"0.794 µM [falling, full curve, poor fit]"
18,COc1ccc2nc(NC(=O)Cc3ccc(OC)c(S(=O)(=O)N4CCOCC4)c3)sc2c1,"10 µM [rising, partial curve]"
19,N#Cc1cccc(-c2cc(NCc3ccccc3)ncn2)c1,"6.31 µM [rising, partial curve]"
20,Cn1c2ccccc2c2ncn(Cc3ccco3)c(=O)c21,"10 µM [rising, partial curve]"
21,Cc1ccc(-n2nnnc2SCc2nnc(-c3ccccc3Br)o2)c(C)c1,"0.1 µM [falling, full curve]"
22,COc1cccc(-n2nnc3c(=O)n(Cc4cccc(C)c4)cnc32)c1,"12.6 µM [rising, partial curve]"
23,O=C(COC(=O)C1=COCCO1)Nc1ncc(C(F)(F)F)cc1Cl,"0.0794 µM [falling, partial curve, poor fit]"

row,Structure (SMILES),AC50
1,COc1ccc(OC)c(C2SCCN2S(=O)(=O)c2cccc(C(F)(F)F)c2)c1 (centres undefined),"0.794 µM [falling, partial curve, poor fit]"
2,COc1cc(-c2nnc3sc(Cc4ccc(Cl)cc4)nn23)cc(OC)c1OC,"2 µM [rising, full curve]"
3,O=C(Oc1ccnc2cc(Cl)ccc12)N1CCOCC1,"0.00631 µM [falling, full curve]"
4,Cc1ccc(Cn2nnc3c(=O)n(CC(=O)N4CCCc5ccccc54)cnc32)cc1,"0.631 µM [falling, full curve]"
5,COc1nnc(-c2ccc(N3CCOCC3)c(NC(C)=O)c2)c2ccccc12,"0.398 µM [rising, full curve]"
6,c1ccc2c(c1)[nH]c1nc(SCCN3CCOCC3)nnc12,"12.6 µM [rising, single point]"
7,CN(C)CCCOC(=O)Cc1ccc(Cl)cc1,"0.794 µM [falling, full curve]"
8,Cn1c(C(=O)NCCN2CCCCCC2)cc2c(=O)n(C)c3ccccc3c21,"6.31 µM [rising, partial curve]"
9,NC(=Nc1ccccc1)NC(=O)c1nc(Cl)c(N)nc1N,"25.1 µM [rising, partial curve]"
10,CCCCn1c(CN2CCN(c3cccc(Cl)c3)CC2)nc2c1c(=O)n(C)c(=O)n2C,"5.01 µM [falling, partial curve]"
11,Cc1cccc(S(=O)(=O)Nc2nc3ccccc3nc2NCc2ccco2)c1,"7.94 µM [rising, partial curve]"
12,CSc1ncccc1C(=O)OCC(=O)c1cc2ccccc2o1,"5.01 µM [falling, single point]"
13,CCN1C(=O)/C(=C/N(C)C)c2ccccc21,"3.16 µM [falling, full curve, poor fit]"
14,COc1ccc(Cc2nnc3n2N=C(c2cc4ccccc4o2)CS3)cc1OC,"3.98 µM [rising, partial curve]"
15,O=C(O)CC(CC(=O)O)C(=O)O,"0.501 µM [rising, single point]"
16,O=C(COc1ccc2ccccc2c1Br)N1CCOCC1,"15.8 µM [falling, partial curve]"
17,COCCN(CCOC)c1cc(C)c(C#N)c2nc3ccccc3n12,"12.6 µM [rising, partial curve]"
18,N#Cc1c(N2CCCC2)nc(N)c2c(N)nc(N3CCCC3)cc12,"3.16 µM [rising, single point]"
19,O=C(O)c1cc(S(=O)(=O)N2CCCCCC2)c(Cl)cc1Cl,"0.631 µM [falling, full curve]"
20,CCN(CC)c1ccc(-c2nc3cnccc3n2C)cc1,"1.26 µM [rising, partial curve]"
21,O=C(NCc1ccccn1)c1ccc(Br)s1,"12.6 µM [falling, partial curve]"
22,Cc1sc2nc(CSc3nnc(Cc4cccs4)n3C3CCCCC3)[nH]c(=O)c2c1C,"12.6 µM [rising, single point]"
23,CC(=O)NCCNc1nc(-c2cccc(C#N)c2)nc2ccccc12,"7.94 µM [rising, partial curve]"

# No new results follow: an excerpt of the list.
row,Structure (SMILES),AC50
1,COc1ccc(OC)c(C2SCCN2S(=O)(=O)c2cccc(C(F)(F)F)c2)c1 (centres undefined),"0.794 µM [falling, partial curve, poor fit]"
2,COc1cc(-c2nnc3sc(Cc4ccc(Cl)cc4)nn23)cc(OC)c1OC,"2 µM [rising, full curve]"
3,O=C(Oc1ccnc2cc(Cl)ccc12)N1CCOCC1,"0.00631 µM [falling, full curve]"

# Given as tab-separated lines: entries from further up.
row	Structure (SMILES)	AC50
2	COc1cc(-c2nnc3sc(Cc4ccc(Cl)cc4)nn23)cc(OC)c1OC	2 µM [rising, full curve]
3	O=C(Oc1ccnc2cc(Cl)ccc12)N1CCOCC1	0.00631 µM [falling, full curve]
4	Cc1ccc(Cn2nnc3c(=O)n(CC(=O)N4CCCc5ccccc54)cnc32)cc1	0.631 µM [falling, full curve]

# Reference: PubChem BioAssay AID662 (National Center for Advancing Translational Sciences (NCATS), 2007)
